# Source: PubChem BioAssay AID504834 (National Center for Advancing Translational Sciences (NCATS), 2011)
# The campaign covered roughly 320,000 compounds. About 22,000 (6.9%) were called active. This list was built around the results that the source calls inconclusive (neither active nor inactive); the mix of calls is not that of the screen. Calls follow the shape of the dose curve; as a rule, active = well fitted inhibition curve with a large enough effect; inconclusive = small, poorly fitted or top-dose-only effect, or another doubt; inactive = no such curve, though single readings can be large or run the other way. Potencies beside an inconclusive call are fits to weak or partial responses and may not hold up.
# Experiment: Primary qHTS for delayed death inhibitors of the malarial parasite plastid, 96 hour incubation
# Conditions: P. falciparum luciferase reporter growth; series mostly up to 28.7 µM; activity change, negative = inhibition: at the top concentration
# Procedure, shortened: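 Delayed-death screen, second-generation endpoint: infected erythrocytes, 2% hematocrit, 0.05% parasitemia final; 96 hours at 37 C, 5% CO2; luciferase detection reagent; luminescence decrease equals reduced growth.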
# % is scaled to controls: 0 for no effect and ±100 for the full control effect; potency is read from the fitted curve at half-maximal effect.
Compound,Potency,"activity change, negative = inhibition"
CCCn1c(SCC(=O)N2CCCC2)nc2c1c(=O)n(C)c(=O)n2C,active: 1.17 µM,
NC(=O)c1nn(-c2ccccc2)nc1N,,inactive: -14.1%
CC(C)=NNc1nc2sc3c(c2c(=O)[nH]1)CC(C)(C)OC3,,inactive: -11.9%
Cc1ccccc1OCCn1cc(C(=S)N2CCN(C)CC2)c2ccccc21,"inconclusive: 18.5 µM [inhibitor, single point]",
CC(=O)c1c(C)oc2ccc(N(C(C)=O)S(=O)(=O)c3cccc4cccnc34)cc12,"inconclusive: 18.5 µM [inhibitor, partial curve, poor fit]",
Cn1c2ccccc2c2c(C(=O)N3CCN(C(=O)c4ccco4)CC3)cn(C3CCCCC3)c(=O)c21,"inconclusive: 8.28 µM [inhibitor, partial curve, poor fit]",
CSc1ccc(CC(=O)N2CCC(n3nccc3NC(=O)C3CC3)CC2)cc1,"inconclusive: 11.7 µM [inhibitor, single point]",
CN1CCCCCC1C(=O)N1CCC(N2CCC(C(=O)N3CCOCC3)CC2)CC1 (centres undefined),"inconclusive: 10.4 µM [inhibitor, single point]",
O=C(Nc1ccc(Br)cc1)NC1CCCCCCC1,"inconclusive: 10.4 µM [inhibitor, single point]",
Cn1c(=O)c2c(nc(CN3CCOCC3)n2CCN2CCOCC2)n(C)c1=O,,inactive: -81.1%
COc1ccccc1CNC(=O)c1ccc(OC(C)C)cc1,,inactive: 15.1% [at 5.75 µM]
Cc1ccc(C(C(=O)NCc2ccco2)N(C(=O)CNC(=O)c2cccs2)c2ccc(C)cc2C)cc1 (centres undefined),"inconclusive: 13.1 µM [inhibitor, single point]",
Cc1ccc(S(=O)(=O)N2CCCCC2)cc1NC(=O)CSc1ccc2c(c1)OCCO2,"inconclusive: 9.28 µM [inhibitor, partial curve, poor fit]",
CCOC(=O)c1oc2ccc(S(=O)(=O)n3nc(-c4ccc(C)cc4)cc3N)cc2c1C,"inconclusive: 13.1 µM [inhibitor, single point]",
CCCCCOc1ccc(/C(C)=N/NC2=NCCN2)cc1,active: 11.7 µM,
CCN(CC)CCC(c1cc(OC)c(OC)c(OC)c1)c1c(OC)cc(OC)c2c(C)cc(=O)oc12 (centres undefined),"inconclusive: 3.7 µM [inhibitor, partial curve, poor fit]",
CN(C)CCCN(C(=O)C1=COCCO1)c1nc2ccc(Br)cc2s1,"inconclusive: 18.5 µM [inhibitor, single point]",
CCCCn1nc2cc(C(=O)NCc3ccccc3)ccc2c1OCC,"inconclusive: 18.5 µM [inhibitor, single point]",
CCCN(Cc1ccccc1)C(=S)Nc1cccc(C(F)(F)F)c1,"inconclusive: 18.5 µM [inhibitor, single point]",
c1ccc2c(c1)CCOC2CNCCCN1CCCCC1 (centres undefined),active: 11.7 µM,
Cc1cc(C)nc(NC(=O)C(c2ccccc2)c2ccccc2)n1,,inactive: 59.7%
CC(C)(O)C(Cl)(Cl)Cl,active: 1.69 µM,

# Among those listed so far, these contain a furan ring, fused or not:
Compound,Potency,"activity change, negative = inhibition"
CC(=O)c1c(C)oc2ccc(N(C(C)=O)S(=O)(=O)c3cccc4cccnc34)cc12,"inconclusive: 18.5 µM [inhibitor, partial curve, poor fit]",
Cn1c2ccccc2c2c(C(=O)N3CCN(C(=O)c4ccco4)CC3)cn(C3CCCCC3)c(=O)c21,"inconclusive: 8.28 µM [inhibitor, partial curve, poor fit]",
Cc1ccc(C(C(=O)NCc2ccco2)N(C(=O)CNC(=O)c2cccs2)c2ccc(C)cc2C)cc1 (centres undefined),"inconclusive: 13.1 µM [inhibitor, single point]",
CCOC(=O)c1oc2ccc(S(=O)(=O)n3nc(-c4ccc(C)cc4)cc3N)cc2c1C,"inconclusive: 13.1 µM [inhibitor, single point]",

# Remaining list, next part

Compound,Potency,"activity change, negative = inhibition"
COc1ccc(CN2CCN(C(C)C(=O)N(C)Cc3cccc(F)c3)CC2)cc1OC (centres undefined),"inconclusive: 4.15 µM [inhibitor, single point]",
Cc1ccc(S(=O)(=O)NCc2ccncc2)cc1C,"inconclusive: 9.28 µM [inhibitor, partial curve, poor fit]",
COC(=O)c1cc(S(=O)(=O)N2CCN(c3ccc([N+](=O)[O-])cc3)CC2)c[nH]1,,inactive: -7.61%
C#CCn1cnc2c(cnn2-c2ccc(C)c(C)c2)c1=O,"inconclusive: 11.7 µM [inhibitor, partial curve, poor fit]",
CC1CN(C(=S)Nc2ccc(Cl)cc2)CC(C)O1 (centres undefined),"inconclusive: 11.7 µM [inhibitor, single point]",
O=C(NC1CCCCC1)C1CC(=O)N(c2cccc([N+](=O)[O-])c2)C1 (centres undefined),,inactive: 36.7%
O=P(c1ccccc1)(c1ccccc1)c1ccc(O)cc1,,inactive: 10.4%
CCOC(=O)c1ccc(NC(=O)CC2COc3ccccc3O2)cc1 (centres undefined),"inconclusive: 18.5 µM [inhibitor, single point]",
O=C(Nc1ccc2c(c1)OCO2)c1cccc(Cl)c1,"inconclusive: 10.4 µM [inhibitor, single point]",
CCc1ccc(-n2cc(-c3ccc([N+](=O)[O-])cc3)[nH]c2=S)cc1,"inconclusive: 9.28 µM [inhibitor, single point]",
Cc1cc(NC(=O)c2ccco2)ccc1NC(=O)c1ccco1,,inactive: 88.2%
CCCc1nc2ccccc2c(NC(=O)CN(CC)CC)c1CC,,inactive: 5.3%
CC(CSc1nnnn1-c1ccccc1)Cn1c(N2CCN(C)CC2)nc2c1c(=O)[nH]c(=O)n2C (centres undefined),"inconclusive: 18.5 µM [inhibitor, partial curve, poor fit]",
COc1ccc(C(C(=O)NC2CCCC2)N(C(=O)c2snc(C(N)=O)c2N)c2ccccc2OC)cc1OC (centres undefined),,inactive: 1.34%
C[N+](C)(C)CCc1ccc(O)cc1,"inconclusive: 0.165 µM [inhibitor, full curve, poor fit]",
Clc1ccccc1Cn1nnc2c(NCC3CC3)ncnc21,"inconclusive: 18.5 µM [inhibitor, single point]",
C=CCCC(=O)N1CCCC(Cc2cccc(Cl)c2)(C(=O)OCC)C1 (centres undefined),active: 11.7 µM,
CCN(C(=O)COC(=O)C1=COCCO1)c1c(N)n(Cc2ccccc2)c(=O)[nH]c1=O,,inactive: 26.2%
O=C(C1=C[C@@H](c2ccc(C(F)(F)F)cc2)C[C@@H](OCc2ccc(CO)cc2)O1)N1CCOCC1,"inconclusive: 10.4 µM [inhibitor, single point]",
O=C(Nc1ccc(-c2cn3ccsc3n2)cc1)c1ccc(F)c(S(=O)(=O)N2CCOCC2)c1,active: 9.28 µM,
COC(=O)c1sc(NC(=O)c2cc(C)on2)nc1C,,inactive: 85.6%
COc1ccc2cc(C(=O)N3CCN(c4ccccc4OC)CC3)[nH]c2c1,"inconclusive: 14.7 µM [inhibitor, single point]",
Cc1cc(-c2nnc3n2N=C(c2ccc(F)cc2)CS3)n[nH]1,"inconclusive: 11.7 µM [inhibitor, partial curve, poor fit]",

Compound,Potency,"activity change, negative = inhibition"
Cc1ccc(NC(=O)CCN2C(=O)CSC2=O)c(C)c1,,inactive: 17.7%
CN(C)S(=O)(=O)c1ccc(C(=O)OCCCN=C2NS(=O)(=O)c3ccccc32)cc1,"inconclusive: 18.5 µM [inhibitor, single point]",
O=C(Nc1ccc(F)cc1)Nc1nnc(Cc2ccccc2F)s1,active: 10.4 µM,
CCCCNC(=O)CSc1nc2ccsc2c(=O)n1CCCC(=O)NCCc1ccc(S(N)(=O)=O)cc1,,inactive: 23%
O=C(N/N=C/c1cccc([N+](=O)[O-])c1)c1cc(-c2ccccc2)nc2ccccc12,"inconclusive: 13.1 µM [inhibitor, single point]",
S=C(Nc1ccc(Cl)cc1)N(CCCN1CCOCC1)Cc1cccs1,"inconclusive: 18.5 µM [inhibitor, single point]",
CC(C(=O)Nc1ccc(S(=O)(=O)N2CCCC2)cc1)N1CCc2ccccc2C1 (centres undefined),"inconclusive: 13.1 µM [inhibitor, single point]",
Cc1cccc(N(C)C(=O)CCS(=O)(=O)c2cc3c(cc2Cl)NC(=O)CO3)c1,"inconclusive: 18.5 µM [inhibitor, single point]",
Cc1ccc2c(c1)N(C(=O)CCC(=O)N1CCN(c3cccc(C)c3C)CC1)CCO2,,inactive: 48.2%
COc1ccc(NC(=O)Cn2cnc3c(oc4nc5c(cc43)COC(C)(C)C5)c2=O)cc1,"inconclusive: 7.38 µM [inhibitor, partial curve, poor fit]",
CC1Cc2ccccc2N1C(=O)Cn1cnc2ccccc21 (centres undefined),,inactive: -32.8% [at 5.75 µM]
COC(=O)CCCC1=CC2=C(c3ccccc3)C(=O)C(C)(OC(=O)C3CCCC3)C(=O)C2=CN1c1ccccc1 (centres undefined),"inconclusive: 18.5 µM [inhibitor, single point]",
CC(C)CC(O)C1CCN(C(=O)CCc2nnc(-c3ccccc3)o2)CC1 (centres undefined),,inactive: -8.62%
N#C/C(=C\c1cccnc1)C(=O)NC1CCCCC1,"inconclusive: 18.5 µM [inhibitor, single point]",
C=C(C)C(=O)NC1=NN(c2ccccc2)C(=O)C1,"inconclusive: 2.33 µM [inhibitor, partial curve, poor fit]",
COc1cc2c(cc1OC)CN(C(C)C(=O)Nc1ccc(NC(C)=O)cc1)CC2 (centres undefined),"inconclusive: 9.28 µM [inhibitor, partial curve, poor fit]",
Cc1ccc(C)c(N2CCN(C(=O)c3ccc(NC4=NC5CS(=O)(=O)CC5S4)cc3)CC2)c1 (centres undefined),active: 10.4 µM,
CCOC(=O)c1cc(-c2ccc(OC)cc2)nc2c1c(C)nn2CCC(N)=S,"inconclusive: 14.7 µM [inhibitor, single point]",
Cc1sc2nc(SCc3nc4ccccc4[nH]3)n(Cc3ccco3)c(=O)c2c1C,,inactive: 73.9%
O=C(O)C1C2C=CC(C2)C1C(=O)OC1CC2CCC1C2 (centres undefined),"inconclusive: 18.5 µM [inhibitor, single point]",
O=C(Nc1cccc(-c2nc3cccnc3s2)c1)c1cccnc1Cl,"inconclusive: 18.5 µM [inhibitor, single point]",
COc1ccccc1N1CCN(Cc2cccc(OC)c2O)CC1,"inconclusive: 10.4 µM [inhibitor, partial curve]",
CCC(=O)c1c(NC(C)C)cc(C)oc1=O,"inconclusive: 18.5 µM [inhibitor, single point]",
